Experimental data reported in the supplement of paper PMC10849652.
The list shows a part of the results.

Amino acid sequences for entries named in this document (tags omitted). A change or cut given only in a name is not applied to a line headed by its entry.
UniProt Q96N67: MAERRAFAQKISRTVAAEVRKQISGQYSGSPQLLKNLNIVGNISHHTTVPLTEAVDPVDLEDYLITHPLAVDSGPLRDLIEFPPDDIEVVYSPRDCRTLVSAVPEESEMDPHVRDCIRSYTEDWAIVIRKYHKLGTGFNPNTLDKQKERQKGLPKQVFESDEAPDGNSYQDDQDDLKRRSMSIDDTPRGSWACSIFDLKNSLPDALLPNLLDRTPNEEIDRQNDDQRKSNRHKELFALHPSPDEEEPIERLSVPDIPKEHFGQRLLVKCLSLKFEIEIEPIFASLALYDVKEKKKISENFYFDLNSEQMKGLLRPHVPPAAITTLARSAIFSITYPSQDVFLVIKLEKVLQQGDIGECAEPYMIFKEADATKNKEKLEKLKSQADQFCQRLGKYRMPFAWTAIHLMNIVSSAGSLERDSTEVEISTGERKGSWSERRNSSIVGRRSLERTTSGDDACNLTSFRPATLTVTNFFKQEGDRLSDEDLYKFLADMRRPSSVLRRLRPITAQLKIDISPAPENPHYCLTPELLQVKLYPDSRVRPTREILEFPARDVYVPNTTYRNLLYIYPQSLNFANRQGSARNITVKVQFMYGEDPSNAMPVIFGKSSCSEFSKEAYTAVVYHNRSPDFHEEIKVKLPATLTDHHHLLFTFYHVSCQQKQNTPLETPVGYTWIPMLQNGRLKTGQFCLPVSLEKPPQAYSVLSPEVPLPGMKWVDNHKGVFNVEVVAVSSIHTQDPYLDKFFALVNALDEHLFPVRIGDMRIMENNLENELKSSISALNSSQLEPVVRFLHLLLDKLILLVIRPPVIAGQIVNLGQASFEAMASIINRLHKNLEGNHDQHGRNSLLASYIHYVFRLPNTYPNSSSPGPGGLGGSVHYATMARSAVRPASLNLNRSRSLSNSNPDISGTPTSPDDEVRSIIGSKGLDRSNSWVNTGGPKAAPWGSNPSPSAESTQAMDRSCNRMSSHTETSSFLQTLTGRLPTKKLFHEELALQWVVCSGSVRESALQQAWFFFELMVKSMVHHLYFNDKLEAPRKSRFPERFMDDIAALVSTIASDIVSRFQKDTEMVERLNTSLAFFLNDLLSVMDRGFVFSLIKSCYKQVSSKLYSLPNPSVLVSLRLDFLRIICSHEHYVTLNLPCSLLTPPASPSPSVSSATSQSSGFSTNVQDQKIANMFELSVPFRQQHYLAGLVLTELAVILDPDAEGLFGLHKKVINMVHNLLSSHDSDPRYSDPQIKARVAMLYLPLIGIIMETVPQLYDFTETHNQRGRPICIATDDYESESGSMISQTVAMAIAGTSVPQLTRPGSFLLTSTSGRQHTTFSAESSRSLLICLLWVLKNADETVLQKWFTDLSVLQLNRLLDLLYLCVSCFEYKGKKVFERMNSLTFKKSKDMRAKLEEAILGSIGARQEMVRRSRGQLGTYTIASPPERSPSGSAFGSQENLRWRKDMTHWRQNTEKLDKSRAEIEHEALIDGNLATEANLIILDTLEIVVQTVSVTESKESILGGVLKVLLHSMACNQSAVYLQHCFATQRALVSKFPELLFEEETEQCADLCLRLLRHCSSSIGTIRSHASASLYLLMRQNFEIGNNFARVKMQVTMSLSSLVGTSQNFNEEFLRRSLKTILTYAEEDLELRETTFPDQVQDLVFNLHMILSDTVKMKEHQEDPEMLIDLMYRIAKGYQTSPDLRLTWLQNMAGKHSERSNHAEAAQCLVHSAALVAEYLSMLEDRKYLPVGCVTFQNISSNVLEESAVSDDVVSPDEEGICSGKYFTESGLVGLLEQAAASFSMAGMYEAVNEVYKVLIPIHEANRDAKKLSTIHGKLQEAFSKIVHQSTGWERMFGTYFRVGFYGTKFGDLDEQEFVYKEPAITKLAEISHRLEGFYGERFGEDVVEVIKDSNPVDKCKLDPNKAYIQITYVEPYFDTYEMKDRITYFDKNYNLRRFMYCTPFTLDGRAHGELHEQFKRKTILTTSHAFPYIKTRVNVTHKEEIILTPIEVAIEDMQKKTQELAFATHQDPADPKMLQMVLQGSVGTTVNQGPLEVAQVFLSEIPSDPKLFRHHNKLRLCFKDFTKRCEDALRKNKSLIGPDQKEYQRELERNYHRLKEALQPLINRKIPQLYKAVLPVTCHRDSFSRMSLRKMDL
UniProt Q9BU89: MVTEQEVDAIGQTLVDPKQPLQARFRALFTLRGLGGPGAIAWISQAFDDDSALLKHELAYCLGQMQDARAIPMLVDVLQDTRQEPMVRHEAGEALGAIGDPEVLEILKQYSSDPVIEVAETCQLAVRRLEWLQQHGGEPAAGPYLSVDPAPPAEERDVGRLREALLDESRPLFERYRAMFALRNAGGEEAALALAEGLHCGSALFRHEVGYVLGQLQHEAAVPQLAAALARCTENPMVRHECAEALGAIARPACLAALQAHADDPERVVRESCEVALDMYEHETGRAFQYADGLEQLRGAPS
UniProt Q5QJE6: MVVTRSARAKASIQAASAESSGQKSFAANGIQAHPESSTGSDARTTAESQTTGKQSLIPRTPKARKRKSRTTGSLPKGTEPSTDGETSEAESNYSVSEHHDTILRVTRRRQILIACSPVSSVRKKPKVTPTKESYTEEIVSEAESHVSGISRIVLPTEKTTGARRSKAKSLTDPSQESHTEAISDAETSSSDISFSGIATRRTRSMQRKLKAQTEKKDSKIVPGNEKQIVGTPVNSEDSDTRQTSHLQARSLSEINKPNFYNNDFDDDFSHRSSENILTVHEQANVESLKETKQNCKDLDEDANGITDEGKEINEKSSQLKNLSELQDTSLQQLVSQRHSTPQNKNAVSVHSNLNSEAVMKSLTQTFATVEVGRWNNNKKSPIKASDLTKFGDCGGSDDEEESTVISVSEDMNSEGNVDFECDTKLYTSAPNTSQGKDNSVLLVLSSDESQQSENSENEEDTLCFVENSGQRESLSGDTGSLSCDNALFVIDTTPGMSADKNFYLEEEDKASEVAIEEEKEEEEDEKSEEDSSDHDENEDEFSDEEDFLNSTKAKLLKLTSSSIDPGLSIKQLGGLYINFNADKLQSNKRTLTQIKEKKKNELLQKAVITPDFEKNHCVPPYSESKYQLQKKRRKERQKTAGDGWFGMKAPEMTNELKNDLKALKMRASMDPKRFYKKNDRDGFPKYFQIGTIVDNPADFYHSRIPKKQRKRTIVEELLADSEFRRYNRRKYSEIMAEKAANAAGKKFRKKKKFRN
UniProt Q9H410: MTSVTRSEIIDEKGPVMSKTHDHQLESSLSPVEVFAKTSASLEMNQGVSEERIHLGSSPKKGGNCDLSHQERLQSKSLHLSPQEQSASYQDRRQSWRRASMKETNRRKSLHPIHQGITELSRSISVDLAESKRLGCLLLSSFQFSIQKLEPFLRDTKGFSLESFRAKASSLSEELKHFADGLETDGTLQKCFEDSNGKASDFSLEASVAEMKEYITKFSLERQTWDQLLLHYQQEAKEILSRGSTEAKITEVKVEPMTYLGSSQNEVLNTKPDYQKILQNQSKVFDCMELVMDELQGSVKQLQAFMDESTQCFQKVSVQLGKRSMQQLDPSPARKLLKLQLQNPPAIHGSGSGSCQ
UniProt Q5SXM8: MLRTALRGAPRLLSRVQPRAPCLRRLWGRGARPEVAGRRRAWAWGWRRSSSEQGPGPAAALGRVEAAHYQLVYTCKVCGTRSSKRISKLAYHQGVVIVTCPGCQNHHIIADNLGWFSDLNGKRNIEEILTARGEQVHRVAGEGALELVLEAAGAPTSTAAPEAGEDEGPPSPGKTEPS
UniProt Q7L591: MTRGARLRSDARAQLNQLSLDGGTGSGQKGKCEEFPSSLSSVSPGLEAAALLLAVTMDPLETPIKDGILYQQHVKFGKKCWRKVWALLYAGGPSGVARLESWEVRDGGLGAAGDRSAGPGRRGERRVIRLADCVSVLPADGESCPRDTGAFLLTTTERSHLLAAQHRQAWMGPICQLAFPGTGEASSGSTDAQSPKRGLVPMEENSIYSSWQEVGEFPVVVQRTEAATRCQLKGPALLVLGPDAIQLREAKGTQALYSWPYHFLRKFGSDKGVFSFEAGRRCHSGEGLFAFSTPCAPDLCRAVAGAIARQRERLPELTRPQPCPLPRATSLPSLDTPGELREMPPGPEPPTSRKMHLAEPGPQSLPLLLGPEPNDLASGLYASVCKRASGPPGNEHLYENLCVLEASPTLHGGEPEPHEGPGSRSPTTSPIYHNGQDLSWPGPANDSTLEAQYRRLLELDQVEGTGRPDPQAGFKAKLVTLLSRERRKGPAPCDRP
UniProt Q7L8W6: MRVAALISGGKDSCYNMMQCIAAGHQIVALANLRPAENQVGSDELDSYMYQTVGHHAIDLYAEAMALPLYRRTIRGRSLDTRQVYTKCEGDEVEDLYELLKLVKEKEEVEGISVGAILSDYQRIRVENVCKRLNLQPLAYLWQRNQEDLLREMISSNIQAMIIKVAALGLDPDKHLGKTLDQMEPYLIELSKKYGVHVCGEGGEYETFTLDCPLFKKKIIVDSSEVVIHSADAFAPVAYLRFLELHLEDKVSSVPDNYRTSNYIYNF
UniProt Q13011: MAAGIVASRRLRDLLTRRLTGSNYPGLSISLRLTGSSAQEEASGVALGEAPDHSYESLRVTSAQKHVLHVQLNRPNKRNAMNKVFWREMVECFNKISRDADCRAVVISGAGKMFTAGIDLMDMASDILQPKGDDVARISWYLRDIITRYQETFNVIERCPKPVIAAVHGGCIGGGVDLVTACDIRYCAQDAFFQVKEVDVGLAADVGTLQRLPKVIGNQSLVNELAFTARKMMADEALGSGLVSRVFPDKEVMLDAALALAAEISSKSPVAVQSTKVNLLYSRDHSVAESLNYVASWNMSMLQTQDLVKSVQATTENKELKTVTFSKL
UniProt O95905: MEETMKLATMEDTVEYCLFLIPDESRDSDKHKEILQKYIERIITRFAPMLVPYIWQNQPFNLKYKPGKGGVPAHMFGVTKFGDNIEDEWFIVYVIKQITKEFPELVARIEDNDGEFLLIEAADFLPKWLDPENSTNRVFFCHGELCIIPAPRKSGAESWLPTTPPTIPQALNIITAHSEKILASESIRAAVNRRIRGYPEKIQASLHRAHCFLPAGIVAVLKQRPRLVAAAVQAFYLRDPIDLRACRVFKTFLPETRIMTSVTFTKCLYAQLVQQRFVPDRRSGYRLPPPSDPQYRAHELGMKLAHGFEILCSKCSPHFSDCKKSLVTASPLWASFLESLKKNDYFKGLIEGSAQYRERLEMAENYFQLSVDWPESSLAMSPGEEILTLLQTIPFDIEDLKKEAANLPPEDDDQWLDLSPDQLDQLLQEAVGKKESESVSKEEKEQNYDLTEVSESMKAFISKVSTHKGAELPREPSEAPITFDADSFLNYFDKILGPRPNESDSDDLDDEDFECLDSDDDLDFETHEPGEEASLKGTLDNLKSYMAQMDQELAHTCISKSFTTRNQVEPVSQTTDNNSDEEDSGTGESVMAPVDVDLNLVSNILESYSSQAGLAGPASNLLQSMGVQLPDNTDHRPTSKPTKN
UniProt Q9NXW2: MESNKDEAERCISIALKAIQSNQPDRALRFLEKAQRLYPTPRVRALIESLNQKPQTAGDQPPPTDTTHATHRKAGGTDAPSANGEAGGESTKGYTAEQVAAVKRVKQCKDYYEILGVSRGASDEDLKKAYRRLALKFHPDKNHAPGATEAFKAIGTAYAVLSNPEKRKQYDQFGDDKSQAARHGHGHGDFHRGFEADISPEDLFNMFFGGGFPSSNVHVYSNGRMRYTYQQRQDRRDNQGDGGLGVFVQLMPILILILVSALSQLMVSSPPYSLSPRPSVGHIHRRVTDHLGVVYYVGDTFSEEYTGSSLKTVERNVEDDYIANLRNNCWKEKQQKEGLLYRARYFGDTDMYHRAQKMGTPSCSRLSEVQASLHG
UniProt Q96KC8: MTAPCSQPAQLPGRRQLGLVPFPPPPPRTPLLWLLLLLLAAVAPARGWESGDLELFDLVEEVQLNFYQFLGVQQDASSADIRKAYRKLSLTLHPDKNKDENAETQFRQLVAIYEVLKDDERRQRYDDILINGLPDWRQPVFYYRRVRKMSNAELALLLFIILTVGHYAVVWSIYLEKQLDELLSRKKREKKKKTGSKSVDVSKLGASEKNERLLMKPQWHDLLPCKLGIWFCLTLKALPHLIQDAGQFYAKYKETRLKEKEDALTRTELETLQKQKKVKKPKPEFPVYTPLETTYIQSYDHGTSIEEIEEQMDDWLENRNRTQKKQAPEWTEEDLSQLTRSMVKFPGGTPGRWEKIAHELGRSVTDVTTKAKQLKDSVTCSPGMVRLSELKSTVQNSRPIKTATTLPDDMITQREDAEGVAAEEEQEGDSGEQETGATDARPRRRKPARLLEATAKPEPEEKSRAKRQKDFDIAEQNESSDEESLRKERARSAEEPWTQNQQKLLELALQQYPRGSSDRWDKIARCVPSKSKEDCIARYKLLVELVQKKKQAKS

Experiments:
Assay in all cases: log2 fold change, soluble protein after heating vs DMSO (PISA); higher = thermal stabilisation; K562 cells, 10 uM, 30 min; active = over 0.2 and 3.5 SD of the protein, either way, in both replicates (recomputed)
saracatinib = compound: CN1CCN(CCOc2cc(OC3CCOCC3)c3c(Nc4c(Cl)ccc5c4OCO5)ncnc3c2)CC1 [saracatinib]
How it was run: (§1)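 Quantification of soluble protein used TMTpro 16plex LC-MS/MS, with channel sums equalised. Samples were the supernatant after 21,000xg for 90 min of pooled aliquots from K562 cells (2×10^6 cells/mL) treated with 10 μM compound for 30 min, heated for 3 min over 48°C-58°C, and extracted in PBS with 0.5% NP-40 at 4°C. Values, from duplicates, describe thermal stability against control samples on a log2 fold-change scale.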

sotrastaurin = compound: CN1CCN(c2nc(C3=C(c4c[nH]c5ccccc45)C(=O)NC3=O)c3ccccc3n2)CC1 [sotrastaurin]
How it was run: as §1

alvocidib = compound: CN1CC[C@H](c2c(O)cc(O)c3c(=O)cc(-c4ccccc4Cl)oc23)[C@H](O)C1 [alvocidib]
How it was run: as §1

Tubastatin A = compound: CN1CCc2c(c3ccccc3n2Cc2ccc(C(=O)NO)cc2)C1 [Tubastatin A]
How it was run: as §1

[1] = compound: CNC(=O)C1=CC=CC=C1NC2=NC(=NC=C2Cl)NC3=C(C=C(C=C3)N4CCOCC4)OC
How it was run: as §1

defactinib = compound: CNC(=O)c1ccc(Nc2ncc(C(F)(F)F)c(NCc3nccnc3N(C)S(C)(=O)=O)n2)cc1 [defactinib]
How it was run: as §1

rucaparib = compound: CNCc1ccc(-c2[nH]c3cc(F)cc4c3c2CCNC4=O)cc1 [rucaparib]
How it was run: as §1

[2] = compound: CNc1nc(-c2ccc3c(N)n[nH]c3c2)cc(N2C[C@@H](C(=O)NC3CCCCC3)CC[C@H]2C)n1
How it was run: as §1

encorafenib = compound: COC(=O)N[C@@H](C)CNc1nccc(-c2cn(C(C)C)nc2-c2cc(Cl)cc(NS(C)(=O)=O)c2F)n1 [encorafenib]
How it was run: as §1

[3] = compound: COC(=O)[C@H](CCSC)NC(=O)C1=C(C=C(C=C1)NC[C@H](CS)N)C2=CC=CC=C2
How it was run: as §1

filanesib = compound: CON(C)C(=O)N1N=C(c2cc(F)ccc2F)S[C@@]1(CCCN)c1ccccc1 [filanesib]
How it was run: as §1

zotarolimus = compound: CO[C@H]1C[C@@H]2CC[C@@H](C)[C@@](O)(O2)C(=O)C(=O)N2CCCC[C@H]2C(=O)O[C@H]([C@H](C)C[C@@H]2CC[C@H](n3cnnn3)[C@H](OC)C2)CC(=O)[C@H](C)/C=C(\C)[C@@H](O)[C@@H](OC)C(=O)[C@H](C)C[C@H](C)/C=C/C=C/C=C/1C [zotarolimus]
How it was run: as §1

idasanutlin = compound: COc1cc(C(=O)O)ccc1NC(=O)[C@@H]1N[C@@H](CC(C)(C)C)[C@](C#N)(c2ccc(Cl)cc2F)[C@H]1c1cccc(Cl)c1F [idasanutlin]
How it was run: as §1

alisertib = compound: COc1cc(Nc2ncc3c(n2)-c2ccc(Cl)cc2C(c2c(F)cccc2OC)=NC3)ccc1C(=O)O [alisertib]
How it was run: as §1

[4] = compound: COc1cc2nc(-c3cc(F)ccc3O)nc(N[C@@H]3CNC[C@H]3C(C)(C)O)c2cc1OC
How it was run: as §1

gefitinib = compound: COc1cc2ncnc(Nc3ccc(F)c(Cl)c3)c2cc1OCCCN1CCOCC1 [gefitinib]
How it was run: as §1

[5] = compound: COc1cccc2cc(-c3nc([C@H]4CC[C@H](C(=O)O)CC4)n4ncnc(N)c34)[nH]c12
How it was run: as §1

lapatinib = compound: CS(=O)(=O)CCNCc1ccc(-c2ccc3ncnc(Nc4ccc(OCc5cccc(F)c5)c(Cl)c4)c3c2)o1 [lapatinib]
How it was run: as §1

pictilisib = compound: CS(=O)(=O)N1CCN(Cc2cc3nc(-c4cccc5[nH]ncc45)nc(N4CCOCC4)c3s2)CC1 [pictilisib]
How it was run: as §1

[6] = compound: COC1=CC=C(C=C1)CN2C=CC3=C2C=C(C=C3)C(=O)NO
How it was run: as §1

| Target | log2 fold change (saracatinib) | log2 fold change (sotrastaurin) | log2 fold change (alvocidib) | log2 fold change (Tubastatin A) | log2 fold change [1] | log2 fold change (defactinib) | log2 fold change (rucaparib) | log2 fold change [2] | log2 fold change (encorafenib) | log2 fold change [3] | log2 fold change (filanesib) | log2 fold change (zotarolimus) | log2 fold change (idasanutlin) | log2 fold change (alisertib) | log2 fold change [4] | log2 fold change (gefitinib) | log2 fold change [5] | log2 fold change (lapatinib) | log2 fold change (pictilisib) | log2 fold change [6] |
| --- | --- | --- | --- | --- | --- | --- | --- | --- | --- | --- | --- | --- | --- | --- | --- | --- | --- | --- | --- | --- |
| DOCK7 (UniProt Q96N67) | inactive: 0.027 | inactive: 0.016 | inactive: -0.055 | inactive: -0.023 | inactive: -0.141 | inactive: -0.063 | inactive: -0.034 | inactive: -0.021 | inactive: 0.022 | inactive: 0.004 | inactive: -0.134 | inactive: -0.029 | inactive: -0.058 | inactive: 0.128 | inactive: 0.051 | inactive: -0.036 | inactive: 0.042 | inactive: -0.05 | inactive: 0.017 | – |
| DOHH (UniProt Q9BU89) | inactive: -0.035 | inactive: 0.196 | – | inactive: -0.121 | inactive: -0.076 | inactive: -0.152 | inactive: -0.002 | inactive: -0.064 | inactive: -0.074 | inactive: 0.037 | inactive: -0.151 | inactive: 0.022 | inactive: -0.038 | inactive: -0.062 | inactive: -0.041 | inactive: 0.201 | inactive: 0.084 | inactive: -0.006 | inactive: -0.171 | inactive: -0.4 |
| DNTTIP2 (UniProt Q5QJE6) | inactive: -0.038 | inactive: -0.104 | – | inactive: 0.145 | inactive: 0.011 | inactive: -0.131 | inactive: 0.171 | inactive: 0.03 | inactive: 0.067 | inactive: 0.121 | inactive: 0.217 | inactive: 0.061 | inactive: 0.267 | inactive: -0.072 | inactive: -0.09 | inactive: -0.014 | inactive: -0.002 | inactive: 0 | inactive: 0.008 | inactive: -0.095 |
| DSN1 (UniProt Q9H410) | inactive: 0.032 | inactive: -0.042 | – | inactive: 0.082 | inactive: -0.031 | inactive: -0.146 | inactive: 0.076 | inactive: 0.016 | inactive: 0.02 | inactive: 0.029 | inactive: 0.048 | inactive: 0.114 | inactive: -0.013 | inactive: 0.018 | inactive: -0.017 | inactive: 0.113 | inactive: -0.23 | inactive: -0.028 | – | inactive: 0.032 |
| DNLZ (UniProt Q5SXM8) | inactive: 0.032 | inactive: 0.121 | inactive: 0.06 | inactive: 0.032 | inactive: -0.053 | inactive: 0.045 | inactive: 0.069 | inactive: -0.111 | inactive: 0.034 | inactive: 0.036 | inactive: 0.013 | inactive: -0.041 | inactive: -0.12 | inactive: -0.116 | inactive: 0.051 | inactive: -0.055 | inactive: 0.029 | inactive: -0.105 | – | – |
| DYNC1I2 isoform 5 (UniProt Q13409) | inactive: 0.012 | inactive: 0.021 | – | inactive: 0.003 | inactive: 0.012 | inactive: 0.001 | inactive: -0.006 | inactive: -0.005 | inactive: -0.014 | inactive: 0.028 | inactive: 0.003 | inactive: 0.025 | inactive: 0.025 | inactive: -0.051 | inactive: 0 | inactive: -0.003 | inactive: 0.004 | inactive: 0.021 | inactive: 0.035 | inactive: 0.012 |
| DOK3 (UniProt Q7L591) | inactive: -0.039 | inactive: -0.056 | inactive: -0.013 | inactive: 0.11 | inactive: -0.017 | inactive: -0.101 | – | inactive: 0.033 | – | inactive: -0.136 | inactive: -0.071 | inactive: 0.056 | inactive: 0.01 | inactive: 0.194 | inactive: 0.166 | – | inactive: 0.336 | inactive: 0.039 | inactive: -0.041 | – |
| EDC3 (UniProt Q96F86) | inactive: -0.041 | inactive: -0.304 | – | inactive: 0.053 | inactive: -0.021 | inactive: -0.04 | inactive: 0.015 | inactive: -0.237 | inactive: 0.048 | inactive: 0.005 | inactive: 0.112 | inactive: -0.156 | inactive: 0.065 | inactive: 0.02 | inactive: 0.046 | inactive: -0.013 | inactive: -0.337 | inactive: -0.019 | inactive: -0.187 | inactive: 0.02 |
| DPH6 (UniProt Q7L8W6) | inactive: 0.014 | inactive: 0.017 | inactive: 0.08 | inactive: -0.014 | inactive: 0.02 | inactive: -0.053 | inactive: 0.019 | inactive: -0.031 | inactive: 0.05 | inactive: -0.041 | inactive: -0.039 | inactive: -0.085 | inactive: -0.141 | inactive: -0.009 | inactive: 0.054 | inactive: -0.002 | inactive: -0.046 | inactive: 0.016 | inactive: -0.182 | inactive: -0.055 |
| ECH1 (UniProt Q13011) | inactive: -0.037 | active: 0.727 | – | active: 0.519 | inactive: 0.122 | inactive: -0.023 | inactive: -0.012 | inactive: -0.031 | inactive: -0.035 | inactive: -0.024 | inactive: -0.215 | inactive: -0.05 | inactive: -0.134 | inactive: 0.033 | inactive: 0.045 | inactive: -0.032 | inactive: 0.02 | inactive: -0.011 | inactive: 0.033 | inactive: -0.008 |
| ECD isoform 3 (UniProt O95905) | inactive: -0.075 | inactive: -0.091 | inactive: 0.097 | inactive: -0.01 | inactive: -0.039 | inactive: -0.07 | inactive: -0.016 | inactive: 0.024 | inactive: 0.044 | inactive: 0.017 | inactive: 0.007 | inactive: -0.121 | – | inactive: 0.025 | inactive: 0.138 | inactive: 0.045 | inactive: -0.06 | inactive: -0.007 | inactive: 0.003 | inactive: -0.032 |
| DTL (UniProt Q9NZJ0) | inactive: 0.094 | inactive: -0.059 | inactive: -0.287 | inactive: 0.059 | inactive: 0.144 | inactive: -0.042 | inactive: 0.108 | inactive: -0.02 | inactive: -0.118 | inactive: -0.003 | inactive: 0.029 | inactive: 0.013 | inactive: 0.027 | inactive: 0.009 | inactive: 0.058 | inactive: 0.044 | inactive: -0.006 | inactive: -0.038 | inactive: 0.014 | inactive: -0.233 |
| DNAJB12 (UniProt Q9NXW2) | inactive: 0.022 | inactive: 0.068 | – | inactive: -0.006 | inactive: 0.024 | inactive: -0.03 | inactive: 0.079 | inactive: -0.011 | inactive: -0.018 | inactive: -0.021 | inactive: -0.024 | inactive: -0.06 | inactive: -0.006 | inactive: -0.081 | inactive: 0.023 | inactive: 0.029 | inactive: 0.006 | inactive: -0.033 | inactive: -0.051 | inactive: 0.023 |
| DNPEP (UniProt B9ZVU2) | inactive: -0.008 | inactive: 0.026 | inactive: -0.207 | inactive: -0.009 | inactive: -0.024 | inactive: -0.023 | inactive: -0.048 | inactive: -0.035 | inactive: -0.031 | inactive: -0.068 | inactive: -0.062 | inactive: 0.183 | inactive: -0.039 | inactive: -0.132 | inactive: -0.124 | – | inactive: 0.084 | inactive: 0.048 | inactive: -0.152 | inactive: 0.145 |
| DNAJC1 (UniProt Q96KC8) | inactive: -0.02 | inactive: -0.028 | – | inactive: 0.018 | inactive: 0.046 | inactive: 0.004 | inactive: 0.03 | inactive: -0.011 | inactive: 0.003 | inactive: 0.005 | inactive: -0.138 | inactive: -0.039 | inactive: -0.064 | inactive: 0.001 | inactive: -0.17 | inactive: 0.008 | inactive: 0.022 | inactive: -0.078 | inactive: 0.017 | inactive: -0.023 |
| EDC4 (UniProt Q6P2E9) | inactive: -0.023 | inactive: -0.109 | – | inactive: 0.016 | inactive: -0.163 | inactive: -0.148 | inactive: -0.012 | inactive: -0.099 | inactive: 0.113 | inactive: 0.005 | inactive: 0.106 | inactive: 0.001 | inactive: 0.044 | inactive: -0.028 | inactive: 0.062 | inactive: -0.004 | inactive: 0 | inactive: 0.007 | inactive: 0.006 | inactive: 0.018 |
| EEA1 (UniProt Q15075) | inactive: 0.07 | inactive: 0.013 | – | inactive: -0.014 | inactive: -0.014 | inactive: -0.033 | inactive: -0.035 | inactive: -0.026 | inactive: -0.047 | inactive: 0.007 | inactive: -0.012 | inactive: -0.028 | inactive: 0.017 | inactive: -0.031 | inactive: 0.002 | inactive: 0.007 | inactive: 0.036 | inactive: 0.021 | inactive: 0 | inactive: 0.041 |

Full records from above. Order of values: log2 fold change (saracatinib)	log2 fold change (sotrastaurin)	log2 fold change (alvocidib)	log2 fold change (Tubastatin A)	log2 fold change [1]	log2 fold change (defactinib)	log2 fold change (rucaparib)	log2 fold change [2]	log2 fold change (encorafenib)	log2 fold change [3]	log2 fold change (filanesib)	log2 fold change (zotarolimus)	log2 fold change (idasanutlin)	log2 fold change (alisertib)	log2 fold change [4]	log2 fold change (gefitinib)	log2 fold change [5]	log2 fold change (lapatinib)	log2 fold change (pictilisib)	log2 fold change [6]
ECD isoform 3 (UniProt O95905) is entered as inactive: -0.075	inactive: -0.091	inactive: 0.097	inactive: -0.01	inactive: -0.039	inactive: -0.07	inactive: -0.016	inactive: 0.024	inactive: 0.044	inactive: 0.017	inactive: 0.007	inactive: -0.121	–	inactive: 0.025	inactive: 0.138	inactive: 0.045	inactive: -0.06	inactive: -0.007	inactive: 0.003	inactive: -0.032
EDC3 (UniProt Q96F86) is entered as inactive: -0.041	inactive: -0.304	–	inactive: 0.053	inactive: -0.021	inactive: -0.04	inactive: 0.015	inactive: -0.237	inactive: 0.048	inactive: 0.005	inactive: 0.112	inactive: -0.156	inactive: 0.065	inactive: 0.02	inactive: 0.046	inactive: -0.013	inactive: -0.337	inactive: -0.019	inactive: -0.187	inactive: 0.02
